Data on 104 sequences can be found in PubChem BioAssay AID1347423 (Functional Genomics Laboratory (NCATS/FGL), 2020).

About 210 (0.4%) of roughly 52,000 sequences were called active.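 How the source made its calls: active means gene whose silencing raises cell survival under the drug, median off-target-corrected z-score across its silencing RNAs 2 or more; inactive means the rest.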 This is one part of the list.

The assay can be described thus: Resistance to Poly (ADP-Ribose) Polymerase inhibitor: Gene Identification via Genome-wide siRNA Screen. The following applies: mouse BRCA2 R2336H ES cells, olaparib, CellTiter-Glo viability; stronger effect = higher value. Summed up: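 Genome-wide siRNA screen (3 siRNAs/gene, 20 nM) in mouse ES cells carrying hypomorphic BRCA2 R2336H; olaparib 500 nM added 48 h post-transfection, CellTiter-Glo viability 72 h later. Normalized to plate-median negative control; MAD z-scores, gene median, seed-adjusted.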
A general note: ATP-based viability assays read luminescence as a measure of living cells.
Take GCCUUUAAUACAUAGGCUUTT against Cxcl9: the z-score is inactive: 0.149. For the sequence GGGAUGAGAACAAGAAUGUTT against Moap1, the z-score was inactive: -0.998.

On to “GCUCAGAGAUUAUGGCAUCTT against 3300001G02Rik”, for which the z-score is inactive: 0.273.

Turning to “GGGAGUGAAUGUUUCACAUTT against C030022K24Rik”, the z-score is inactive: 0.478. Regarding CCAUAUUAACUACAACACCTT against Lrrc4, the z-score was inactive: 0.444.

Regarding “GGAGGCUGCAAUAGAGGAGTT against 2010016F14Rik”, the z-score is inactive: 0.157. For CCAUAAGUGAGCUUGAUGUTT against Sipa1l1 the value was inactive: 0.781; for CGGCCGUCAGCUUCUUUUATT against Olfr283, inactive: 0.841; for GGUCAAGGUAGGCAAUGAATT against Stau2, inactive: -2.43. As for CCGUAUUGUCCAUUGCCUCTT against Olfr577, the z-score was inactive: -1.94. With GGUGACCACAGACAACAAGTT against Glra4, the z-score is inactive: -0.136. In the case of GGUUUUCCUGCAUUUUUUATT against Rhou, the z-score is inactive: 0.404. GGUGGAGAAGAAAUCUAAGTT against Eif4g1: the z-score was inactive: -1.57. Next, “GGGAUCAGAGGAAUGUAUCTT against 1700056O17Rik”: inactive: -0.692; GGGCUACCUCAGUUUAAACTT against Spic: inactive: 0.0705; “GGAGAGUACUAAAUUUAAGTT against 4833418A01Rik”: inactive: 0.0243. In the case of GGUAGAUAUCAAUAAAGGATT against Olfr794, the z-score was inactive: -0.704. As for “GGCAUAGCAUGAAUGGACGTT against 1200020A08Rik”, the z-score is inactive: -0.191. For CCAAAUUAUCACCCUGUUCTT against Olfr763 the value was inactive: 1.01. As to “CACUCAAAGUUAUAUCAAGTT against Nalp-epsilon”, the z-score was inactive: 0.922. Next, GCAUAUGGCUUAACACAAATT against Tbc1d15: inactive: 0.531; GGAUGAAGCCUUCAUCAGGTT against Adcy6: inactive: 1.36. On to “GGAGGAACUCUGGCAAGCUTT against 2900036G02Rik”, for which the z-score was inactive: -1.11.

Regarding “GGAGGAACAUAUCAAGGAATT against 2310076O21Rik”, the z-score was inactive: -1.62. Take CCGUCUCUAUCUACCUAGGTT against Npas3: the z-score is inactive: 0.489. In the case of GGAAACCUUUCGUAUUUCATT against Cbll1, the z-score was inactive: -0.199.

In the case of GGAGGAAUCAAAGGCUCCUTT against Slc39a5, the z-score is inactive: -0.868. Consider GGCUAUGUUGCACUUUCACTT against V1re1, for which the z-score is inactive: 0.238. For GCCUGAAGAUGAUUCGAUUTT against Gbgt1 the value was inactive: 0.611. As to CCUACACUAGAAUCCUGAATT against Olfr614, the z-score was inactive: -0.546. In the case of GGAUGGGUCAACAUUCUACTT against V1rb5, the z-score was inactive: -0.559. As to GCAGCUUUGAAAUUGUCCATT against Stard5, the z-score was inactive: -0.137. Regarding GGAGUUUUCUUCAACUGGGTT against Atp6v0c, the z-score was inactive: 0.433. For GCGCACUGAGAUUGAAGAATT against Plcd4 the value was inactive: -0.759. For GGUACUACGACCAUCUCCUTT against Tnfrsf13b the value was inactive: 0.104. For GGUAUAGUGGAAGAAUACCTT against Bmpr1b the value was inactive: 0.0142. As to CCCAAUGGCAAUUUUUAGATT against BC026439, the z-score is inactive: -0.13. On to UUCAUGUAGGGUGUCUCUUTT against Olfr180, for which the z-score was inactive: 0.0111. In the case of GCAAAAACCUAUAGGAAAATT against Srpk2, the z-score was inactive: 1.35. As for GCACACAACUGGUAGUUUUTT against Chst1, the z-score is inactive: 0.39. With “CGUUGAACUAGCAGUGGACTT against 1110018G07Rik”, the z-score was inactive: -1.24.

Regarding CCAUCAUCGAUGUGCCCUATT against Olfr355, the z-score was inactive: -0.681.

For the sequence GGAAUUCCGAAUAUUCCAGTT against AU067695, the z-score was inactive: 0.695. For GGAGACCUCCUUUUCCAUUTT against Slc41a1 the value was inactive: -1.19; for GCAGUGGACUUUUUCUUAGTT against Nptx1, inactive: 0.818; for GCAUCAAGCAGAAAAGAGGTT against LOC432825, inactive: 1.35. For GGAUGAAAUUGUGUUAUCUTT against Snrk, the z-score is inactive: 0.968.

As for GCUUACCUGGUCUUGGGCATT against Wbscr18, the z-score is inactive: 0.317.

For the sequence GUGGAAAAUUGAAGGGACGTT against Ndufb3, the z-score was inactive: 0.0701. For “GGACAAAUUGGUAGGAGGATT against 4732467B22” the value was inactive: 0.197. For “GGCUAAAGUGAGCUCUUCATT against 1700021I09Rik”, the z-score is inactive: -0.282.

Turning to CCGUCAUCCGAGCAAUCAGTT against Kcnq5, the z-score was inactive: 1.07. Regarding GGGACUCUUGUUGGAUCCATT against Htr1d, the z-score is inactive: 0.588. As to GCCACUUCCGGCCUUUUUATT against Zfp422, the z-score was inactive: 0.155. Regarding GGUACUGUGCCUAGCCUUATT against Adrb2, the z-score was inactive: -0.318.

As for GCACCUAUACCGCCGUAUCTT against Agpat3, the z-score was inactive: -0.812. For GGACUAUGAACCUACCAAATT against Rala, the z-score was inactive: 0.516. For CGCAUUCUAUUACUGUUACTT against Stxbp3, the z-score is inactive: -0.00813. Next, GGAAAGGAACAGAAAAGAATT against Odz2: inactive: 1.28. For the sequence GGUGGAACUUCUAUACAAATT against Thbs1, the z-score was inactive: 0.388. As to CGCGUACAGAAGCAGUUAGTT against AW555464, the z-score was inactive: 1.71. In the case of GGGAUCAAUGUCAUCCUUUTT against Nif3l1, the z-score was inactive: 0.347. For GCUGACGACGCGGCCUUUCTT against Tifp39 the value was inactive: -1.18. For the sequence GCUAUCCGGAAAGCGAUCATT against Anxa3, the z-score is inactive: -1.19.

GGACCAAGAGGACAUUACCTT against Tbl3: the z-score is inactive: -1.5. Turning to GCUUAUGAGGCUCAGCAUUTT against Pigh, the z-score is inactive: -0.496. In the case of GCUCUGAUUCAUUACUAUUTT against Mansc1, the z-score was inactive: -0.000872.

Regarding CCACUCACAACAGUACUACTT against Tcfap2d, the z-score was inactive: -0.861. For GGAGAGUUUAUCAGACAGUTT against Shmt2 the value was inactive: 2.44; for GGAUGUUGGUAGACUUCUUTT against Olfr732, inactive: -0.691; for GCACUAAGCUUUAUUCAUCTT against Mast2, inactive: -0.0778. Next, GGCUGAAAAUUCCAGACUGTT against Ka35: inactive: -1.2; GACAGUUACCAACUUCUACTT against Gpr54: inactive: 0.478; GGGUGAAGAAUCUUUUUGUTT against Olfr676: inactive: 0.172. On to GCCUAACCUGGUAUCCCAGTT against Zfp92, for which the z-score was inactive: 0.793. GGGACUUUCCCACUCAAAATT against Olfr1295: the z-score is inactive: 2.53.

GCAGGUUCGAAAAUCAAUGTT against Upf3b: the z-score was inactive: 0.157. In the case of “GGCUGAAGGGCUCUACAAATT against E430021N18Rik”, the z-score was inactive: -1.6. Take GUAUAGUGUAUCUCAUCAUTT against Olfr1107: the z-score was inactive: 2.32. In the case of GGUGGAAUAACAGAUAAAATT against Cutc, the z-score was inactive: -0.391. For the sequence GGUCUUAAUCUCAGGAUGATT against Car5a, the z-score is inactive: 2.17. Turning to GGGAAAUCACAAUUCCUUATT against Mcmdc1, the z-score was inactive: -1.36. For “GGAACUGGUAAAUUUGUAATT against 5730446C15Rik”, the z-score was inactive: -0.237. Turning to GGUACAGUACAUUGACCUATT against Adck5, the z-score was inactive: -0.319. For GGUGUUCUGGAAGAAGAAATT against Thoc1, the z-score was inactive: -1.92. As for GGUUUUUGACAACUUUCUGTT against Fxyd4, the z-score is inactive: 0.549. In the case of GGAUGAUGAAUGCAAUUAATT against Eed, the z-score was inactive: 0.853. Next, “CGAACACCGGUUACAAACUTT against 2010001J22Rik”: inactive: 0.534; CCUAUUUUGGUAAGAUAGATT against Rasl12: inactive: -0.481; GGCUGUGCUCAGGAUCAAATT against Olfr683: inactive: 2.34. With CCUACUUCCGAGGUUUCUUTT against Lmtn, the z-score was inactive: 0.098.

As for GCGAGCGGUUGACUUGUGUTT against Ftsj1, the z-score was inactive: 0.529. Turning to GCAUCUUAGGCAUUGCUAGTT against Pcna, the z-score was inactive: -2.62. Next, GGUCUCAUCGCUUGAUACUTT against Pcdhgb6: inactive: -0.666. In the case of GGGUUCAAGAGAUGAUAUUTT against Usp11, the z-score was active: 2.47. Regarding GGACCUACUACGUAAACCATT against Nedd4, the z-score was inactive: -0.288. As to GCAGGAAGAAUGUUUUUCUTT against LOC626846, the z-score was inactive: -0.452. Turning to GGAACAGUACCUUUUUGUGTT against Dnase1, the z-score is inactive: -0.412. Turning to CCCUCGUUGAAUUAAACUUTT against Zfp533, the z-score was inactive: 0.0132. With CCUCUGUUGAACCAUCAUUTT against Gpr21, the z-score was inactive: -1.66. For GGUACCUCUUCUCCUAAAGTT against Vps16 the value was inactive: 0.283. Next, “GGAACAUCCAGUCAUUUUATT against 4732429I09Rik”: inactive: 0.367; GGAUCUUUCCAGGUUACAATT against Dmrta1: inactive: 0.663; GGAUCAUCAACCAUCUAAUTT against Sfrs7: inactive: -0.775.
